PubChem BioAssay AID1259254 – NCATS | 2017
In all, the deposit lists about 59,000 reagents; below is a part drawn at random. About 1,550 of them (2.6%) were called active. 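G2 share is only a proxy for re-replication; each gene was hit by three separate siRNAs, and active genes were retested.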 Unmarked entries are inactive. The numbers tell different reagents against one gene apart. Further read-outs or replicates are left out here. No sequences are given here. Not given: the amount of reagent.

Assay: 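Genome-wide screen for genes that prevent DNA re-replication in cancer cells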 (primary screen)
Cells: human HCT116 colorectal cancer cells
Knock-down reagent: single siRNA against human genes
Duration: 3 days
Measured: 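Nuclei stained with Hoechst and imaged; cell-cycle phase assigned by DNA content; G2 share scaled per plate, non-targeting siRNA 0%, GMNN siRNA 100%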
Reading the numbers: G2 robust z-score and G2 cells, % of GMNN control: higher = more G2 cells, more excess DNA replication
Hit rule: 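An siRNA counts as active if its G2 robust z-score lies at least 5 MADs above the screen median; here such calls match roughly 38% of GMNN control or more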

Target gene	reagent no.	G2 robust z-score	G2 cells, % of GMNN control
CSPG5	1	0.0684	3.45
CSPG5	2	0.287	4.99
CSPG5	3	2.16	18.2
IGSF9	1	1.27	11.9
IGSF9	2	-0.133	2.03
IGSF9	3	1.33	12.3
LRRC75A	1	-0.156	1.87
LRRC75A	2	2.17	18.2
LRRC75A	3	-0.947	-3.69
ZNF317	1	-0.766	-2.43
ZNF317	2	-1.28	-6.04
ZNF317	3	0.474	6.31
ABCB8	1	-0.474	-0.37
ABCB8	2	1.43	13
ABCB8	3	-1.12	-4.88
DNAJC6	1	1.35	12.5
DNAJC6	2	-1.01	-4.16
DNAJC6	3	-0.134	2.02
MCHR2	1	0.983	9.88
MCHR2	2	-0.673	-1.76
MCHR2	3	-0.368	0.377
SIX4	1	-0.311	0.781
SIX4	2	-0.632	-1.48
SIX4	3	-0.277	1.02
ARHGAP12	1	3.14	25
ARHGAP12	2	0.726	8.08
ARHGAP12	3	-0.733	-2.19
STK36	1	-0.522	-0.702
STK36	2	-0.712	-2.04
STK36	3	-0.0102	2.9
ZNF839P4	1	2.2	18.5
ZNF839P4	2	-0.431	-0.0667
ZNF839P4	3	0.0823	3.55
ZNF839P4	4	-0.302	0.842
ZNF839P4	5	0.599	7.18
ZNF839P4	6	1.33	12.4
ZNF839P4	7	2.12	17.9
ZNF839P4	8	-0.791	-2.6
ZNF839P4	9	1.99	17

No new results follow: 6 of the entries above.
Target gene	reagent no.	G2 robust z-score	G2 cells, % of GMNN control
ZNF839P4	3	0.0823	3.55
ZNF839P4	4	-0.302	0.842
ZNF839P4	5	0.599	7.18
ZNF839P4	6	1.33	12.4
ZNF839P4	7	2.12	17.9
ZNF839P4	8	-0.791	-2.6

The listing continues:
Target gene	reagent no.	G2 robust z-score	G2 cells, % of GMNN control
PPP6R1	1	-0.086	2.36
PPP6R1	2	2.81	22.7
PPP6R1	3	0.399	5.77
PROK2	1	-0.494	-0.509
PROK2	2	-0.731	-2.18
PROK2	3	2.86	23.1
ZCWPW2	1	2.55	20.9
ZCWPW2	2	-0.953	-3.74
ZCWPW2	3	0.592	7.13
WDR45	1	2.15	18.1
WDR45	2	-0.198	1.57
WDR45	3	-1.1	-4.77
CDH13	1	6 (active)	45.1
CDH13	2	0.975	9.83
CDH13	3	3.74	29.3
IGFBP5	1	-0.494	-0.505
IGFBP5	2	1.55	13.9
IGFBP5	3	1	10
LRRC14B	1	-0.0681	2.49
LRRC14B	2	1.69	14.9
LRRC14B	3	0.963	9.74
BAZ2B	1	0.204	4.4
BAZ2B	2	-1.07	-4.54
BAZ2B	3	-0.348	0.516
NDEL1	1	2.98	23.9
NDEL1	2	-0.687	-1.86
NDEL1	3	0.633	7.42
AGR2	1	-0.346	0.535
AGR2	2	-0.595	-1.22
AGR2	3	-0.625	-1.43
